No constants are given. Whether binding was seen depends on the method and setting. Binding seen in cells or lysates may run through a third protein. A yes stands for co-enrichment or nearness to the bait. Other partners may have been found.

Six molecules from paper PMC8834516 can be followed below.

The assay addresses T1, Transglutaminase-2 (mouse (endogenous in mouse brain)) (UniProt P21981).
T1 sequence: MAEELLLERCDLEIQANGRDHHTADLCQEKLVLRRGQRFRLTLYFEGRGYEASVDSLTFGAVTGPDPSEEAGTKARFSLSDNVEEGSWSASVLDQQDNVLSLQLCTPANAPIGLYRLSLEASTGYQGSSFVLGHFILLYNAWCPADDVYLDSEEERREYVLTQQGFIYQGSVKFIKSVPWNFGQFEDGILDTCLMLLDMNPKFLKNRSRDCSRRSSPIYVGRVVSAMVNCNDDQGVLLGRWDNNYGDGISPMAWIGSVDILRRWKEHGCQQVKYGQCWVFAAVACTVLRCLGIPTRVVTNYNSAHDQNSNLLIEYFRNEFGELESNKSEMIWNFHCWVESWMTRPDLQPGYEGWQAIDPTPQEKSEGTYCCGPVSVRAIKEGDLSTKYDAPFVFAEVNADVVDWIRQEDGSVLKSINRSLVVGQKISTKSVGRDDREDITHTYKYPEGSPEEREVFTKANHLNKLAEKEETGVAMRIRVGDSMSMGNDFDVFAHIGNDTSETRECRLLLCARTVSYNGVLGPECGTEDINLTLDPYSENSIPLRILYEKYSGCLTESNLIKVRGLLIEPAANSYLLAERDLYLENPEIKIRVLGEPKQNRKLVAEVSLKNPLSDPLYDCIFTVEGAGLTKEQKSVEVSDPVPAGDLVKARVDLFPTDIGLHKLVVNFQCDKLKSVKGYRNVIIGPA
Kind of assay: affinity purification with mass spectrometry; TG2 immunoprecipitated from total brain homogenates of 18-month-old WT and APP23 mice with anti-TG2 antibody IA12 crosslinked to protein A/G magnetic beads, 22 h at 4 °C; IP lysis buffer 25 mM Tris pH 7.4, 150 mM NaCl, 1 mM EDTA, 1% NP40, 5% glycerol; on-bead trypsin digest, SWATH MS; TG2−/− cohorts as background, z-test p ≤ 0.05, n = 5 per cohort.

B1: Ubiquitin carboxyl-terminal hydrolase CYLD (protein, UniProt Q80TQ2 1-952)
chain: MSSGLWSQEKVTSPYWEERIFYLLLQECSVTDKQTQKLLKVPKGSIGQYIQDRSVGHSRVPSTKGKKNQIGLKILEQPHAVLFVDEKDVVEINEKFTELLLAITNCEERLSLFRNRLRLSKGLQVDVGSPVKVQLRSGEEKFPGVVRFRGPLLAERTVSGIFFGVELLEEGRGQGFTDGVYQGKQLFQCDEDCGVFVALDKLELIEDDDNGLESDFAGPGDTMQVEPPPLEINSRVSLKVGESTESGTVIFCDVLPGKESLGYFVGVDMDNPIGNWDGRFDGVQLCSFASVESTILLHINDIIPDSVTQERRPPKLAFMSRGVGDKGSSSHNKPKVTGSTSDPGSRNRSELFYTLNGSSVDSQQSKSKNPWYIDEVAEDPAKSLTEMSSDFGHSSPPPQPPSMNSLSSENRFHSLPFSLTKMPNTNGSMAHSPLSLSVQSVMGELNSTPVQESPPLPISSGNAHGLEVGSLAEVKENPPFYGVIRWIGQPPGLSDVLAGLELEDECAGCTDGTFRGTRYFTCALKKALFVKLKSCRPDSRFASLQPVSNQIERCNSLAFGGYLSEVVEENTPPKMEKEGLEIMIGKKKGIQGHYNSCYLDSTLFCLFAFSSALDTVLLRPKEKNDIEYYSETQELLRTEIVNPLRIYGYVCATKIMKLRKILEKVEAASGFTSEEKDPEEFLNILFHDILRVEPLLKIRSAGQKVQDCNFYQIFMEKNEKVGVPTIQQLLEWSFINSNLKFAEAPSCLIIQMPRFGKDFKLFKKIFPSLELNITDLLEDTPRQCRICGGLAMYECRECYDDPDISAGKIKQFCKTCSTQVHLHPRRLNHSYHPVSLPKDLPDWDWRHGCIPCQKMELFAVLCIETSHYVAFVKYGKDDSAWLFFDSMADRDGGQNGFNIPQVTPCPEVGEYLKMSLEDLHSLDSRRIQGCARRLLCDAYMCMYQSPTMSLYK
As for B1, the binding entry is given as “binds”.

B2: Copine-5 (protein, UniProt Q8JZW4 1-593)
chain: MEQPEDMASLSEFDSLAGSIPATKVEITVSCRNLLDKDMFSKSDPLCVMYTQGMENKQWREFGRTEVIDNTLNPDFVRKFIVDYFFEEKQNLRFDLYDVDSKSPDLSKHDFLGQAFCTLGEIVGSSGSRLEKPLTIGTFSLNSRTGKPMPAVSNGGVPGKKCGTIILSAEELSNCRDVATMQFCANKLDKKDFFGKSDPFLVFYRSNEDGTFTICHKTEVMKNTLNPVWQTFSIPVRALCNGDYDRTIKVEVYDWDRDGSHDFIGEFTTSYRELARGQSQFNIYEVINPKKKMKKKKYVNSGTVTLLSFAVESESTFLDYIKGGTQINFTVAIDFTASNGNPSQSTSLHYMSPYQLNAYALALTAVGEIIQHYDSDKMFPALGFGAKLPPDGRVSHEFPLNGNQENPSCCGIDGILEAYHSSLRTVQLYGPTNFAPVVTHVARNAAAVQDGSQYSVLLIITDGVISDMAQTKEAIVNAAKLPMSIIIVGVGQAEFDAMVELDGDDVRISSRGKLAERDIVQFVPFRDYVDRTGNHVLSMARLARDVLAEIPDQLVSYMKAQGIRPRPPPAAPAQSPPQSPAHSPPGSPVHTHI
As for B2, the binding result is listed as “binds”.

B3: Insulin-degrading enzyme (protein, UniProt Q9JHR7 1-1019)
chain: MRNGLVWLLHPALPGTLRSILGARPPPAKRLCGFPKQTYSTMSNPAIQRIEDQIVKSPEDKREYRGLELANGIKVLLISDPTTDKSSAALDVHIGSLSDPPNIPGLSHFCEHMLFLGTKKYPKENEYSQFLSEHAGSSNAFTSGEHTNYYFDVSHEHLEGALDRFAQFFLCPLLDASCKDREVNAVDSEHEKNVMNDAWRLFQLEKATGNPKHPFSKFGTGNKYTLETRPNQEGIDVREELLKFHSTYYSSNLMAICVLGRESLDDLTNLVVKLFSEVENKNVPLPEFPEHPFQEEHLRQLYKIVPIKDIRNLYVTFPIPDLQQYYKSNPGYYLGHLIGHEGPGSLLSELKSKGWVNTLVGGQKEGARGFMFFIINVDLTEEGLLHVEDIILHMFQYIQKLRAEGPQEWVFQECKDLNAVAFRFKDKERPRGYTSKIAGKLHYYPLNGVLTAEYLLEEFRPDLIDMVLDKLRPENVRVAIVSKSFEGKTDRTEQWYGTQYKQEAIPEDVIQKWQNADLNGKFKLPTKNEFIPTNFEILSLEKDATPYPALIKDTAMSKLWFKQDDKFFLPKACLNFEFFSPFAYVDPLHCNMAYLYLELLKDSLNEYAYAAELAGLSYDLQNTIYGMYLSVKRYNDKQPILLKKITEKMATFEIDKKRFEIIKEAYMRSLNNFRAEQPHQHAMYYLRLLMTEVAWTKDELKEALDDVTLPRLKAFIPQLLSRLHIEALLHGNITKQAALGVMQMVEDTLIEHAHTKPLLPSQLVRYREVQLPDRGWFVYQQRNEVHNNCGIEIYYQTDMQSTSENMFLELFCQIISEPCFNTLRTKEQLGYIVFSGPRRANGIQGLRFIIQSEKPPHYLESRVEAFLITMEKAIEDMTEEAFQKHIQALAIRRLDKPKKLSAECAKYWGEIISQQYNYDRDNIEVAYLKTLTKDDIIRFYQEMLAVDAPRRHKVSVHVLAREMDSCPVVGEFPSQNDINLSEAPPLPQPEVIHNMTEFKRGLPLFPLVKPHINFMAAKL
For B3, the binding result was “binds”.

B4: Astrotactin-1 (protein, UniProt Q61137 22-1302)
chain: TAAGDVDPSKELECKLKSITVSALPFLRENDLSIMHSPSASEPKLLFSVRNDFPGEMVVVDDLENTELPYFVLEISGNTEDIPLVRWRQQWLENGTLLFHIHHQDGAPSLPGQDPTEEPQHESAEEELRILHISVMGGMIALLLSILCLVMILYTRRRWCKRRRVPQPQKSASAEAANEIHYIPSVLIGGHGRESLRNARVQGHNSSGTLSIRETPILDGYEYDITDLRHHLQRECMNGGEDFASQVTRTLDSLQGCNEKSGMDLTPGSDNAKLSLMNKYKDNIIATSPVDSNHQQATLLSHTSSSQRKRINNKARAGSAFLNPEGDSSTEAENDPQLTFYTDPSRSRRRSRVGSPRSPVNKTTLTLISVTSCVIGLVCSSHVSCPLVVKITLHVPEHLIADGSRFILLEGSQLDASDWLNPAQVVLFSQQNSSGPWAMDLCARRLLDPCEHQCDPETGRREHRAAGECLCYEGYMKDPVHKHLCIRNEWGTNQGPWPYTIFQRGFDLVLGEQPSDKIFRFTYTLGEGMWLPLSKSFVIPPAELAINPSAKCKTDMTVMEDAVEVREELMTSSSFDSLEVLLDSFGPVRDCSKDNGGCSKNFRCISDRKLDSTGCVCPSGLSPMKDSSGCYDRHIGVDCSDGFNGGCEQLCLQQMAPFPEDPTLYNILMFCGCIEDYKLGVDGRSCQLVTETCPEGGDCGESREVPMNQTLFGEMFFGYNNQSKEVATGQVLKGTFRQNNFARGLDQQLPDGLVVASVPLENQCLEEISEPTPDPDFLTGMVNFSEVSGYPVLQHWKVRSVMYHIKLNQAAISQAFSNALHSLDGATSRADFVALLDQFGNHYIQEAVYGFEESCSIWYPNKQVQRRLWLEYEDISKGNSPSDESEERERDPKVLTFPEYIASLSDSGTKRMAAGVRMECQSKGRCPSSCPLCHVTSSPETPAEPVLLEVTRASPIYELVTNNQTQRLLQEATMSSLWCSGTGDVIEDWCRCDSTAFGADGLPTCAPLPQPVLRLSTVHEPSSNLVVLEWEHSEPPIGVQIVDYLIRQEKVTDRMDHSKVETETVLSFVDDIISGAKAPCAMPSQVPDKQLTTISLIIRCLEPDTIYMFTLWGVDNTGRRSRPSDVIVKTPCPVVDDVKAQEIADKIYNLFNGYTSGKEQQTAYNTLLDLGSPTLHRVLYHYNQHYESFGEFTWRCEDELGPRKAGLILSQLGDLSSWCNGLLQEPKISLRRGSLKYLGCRYSEIKPYGLDWSELSRDLRKTCEEQTLSVPYNDYGDSKDI
Regarding B4, the binding entry is given as “binds”.

B5: Ras suppressor protein 1 (protein, UniProt Q01730 1-277)
chain: MSKSLKKLVEESREKNQPEVDMSDRGISSMLDVNGLFSLAHITQLVLSHNKLTTVPPNVAELKNLEVLNFFNNQIEELPTQISSLQKLKHLNLGMNRLNTLPRGFGSSRLLEVLELTYNNLNEHSLPGNFFYLTTLRALYLSDNDFEILPPDIGKLTKLQILSLRDNDLISLPKEIGELTQLKELHIQGNRLTVLPPELGNLDLTGQKQVFKAENNPWVTPIADQFQLGVSHVFEYIRSETYKYLYGRHMQANPEPPKKNNDKSKKISRKPLAAKNK
Turning to B5, the binding result is given as “binds”.

B6: Long-chain-fatty-acid—CoA ligase ACSBG1 (protein, UniProt Q99PU5 1-721)
chain: MPRGSEAGYCCLSRDSNMPDSRDDQQQGASLGTSQDNSQTSSLIDGQTLSKESPSHGLELSAPEKARAASLDGAEEALWTTRADGRVRLRLEPFCTQRPYTVHQMFYEALDKYGNLSALGFKRKDKWERISYYQYYLIARKVAKGFLKLGLERAHSVAILGFNSPEWFFSAVGTVFAGGIVTGIYTTSSPEACQYISHDCRANVIVVDTQKQLEKILKIWKDLPHLKAVVIYQEPPPKKMANVYTMEELIELGQEVPEEALDAIIDTQQPNQCCVLVYTSGTTGNPKGVMLSQDNITWTARYGSQAGDIQPAEVQQEVVVSYLPLSHIAAQIYDLWTGIQWGAQVCFADPDALKGTLVNTLREVEPTSHMGVPRVWEKIMERIQEVAAQSGFIRRKMLLWAMSVTLEQNLTCPSNDLKPFTSRLADYLVLARVRQALGFAKCQKNFYGAAPMTAETQRFFLGLNIRLYAGYGLSESTGPHFMSSPYNYRLYSSGRVVPGCRVKLVNQDADGIGEICLWGRTIFMGYLNMEDKTCEAIDSEGWLHTGDMGRLDADGFLYITGRLKELIITAGGENVPPVPIEEAVKMELPIISSAMLIGDQRKFLSMLLTLKCTLDPETSEPTDSLTEQAVEFCQRVGSKASTVSEIVGQRDEAVYQAIHEGIQRVNANAAARPYHIQKWAILQRDFSISGGELGPTMKLKRLTVLEKYKDIIDSFYQEQKQ
On to B6, for which the binding result is “binds”.
